In PubChem BioAssay AID2685 (National Center for Advancing Translational Sciences (NCATS), 2010):
The list shows a part of the results. The main result of the screen is listed elsewhere. These columns were measured beside it and carry no call. Compounds called inactive in the main read-out are mostly missing here. Potencies come from curve fits of mixed quality, noted in brackets.

Assay: qHTS Assay for Lipid Storage Modulators in Drosophila S3 Cells;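 for cell number change: cells counted by Cell Tracker Red CMTPX staining in the red channel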
Conditions: BODIPY lipid droplet fluorescence, 18-24 h; for cell number change: measured here: cell count max response, cells fed with added oleic acid
Summary of the method: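 Drosophila S3 cells got compounds at several concentrations plus oleic acid (400 uM solution). Laser-scanning cytometry with 488 nm excitation read lipid droplets at 500-530 nm and cells at 575-640 nm. Percent activity was relative to 20 uM Triacsin C.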

[1] = measured here: lipid fluorescence (Fed channel) AC50, cells fed with added oleic acid
[2] = measured here: cell number channel AC50, cells fed with added oleic acid

In the case of `Cc1cc(C)c2nc(NC3=NCN(CCN4CCOCC4)CN3)nc(C)c2c1`, the AC50 [1] is reported as 18.4 µM [falling, partial curve].

For `O=C(NC1CCCCC1)c1cccc(OCc2ccccc2)c1`, the cell number change was 7.33% and the AC50 [2] was 6.51 µM [rising, single point].

For `CCCCCCCc1nc2c(=O)n(C)c3ccccc3c2o1`, the cell number change was 61.7%, the AC50 [2] was 0.82 µM [rising, full curve] and the AC50 [1] was 2.31 µM [rising, partial curve].

With `CCOc1ccc(OCC)c(NC(=O)C2CCN(c3nn4c(=O)cc(C)nc4s3)CC2)c1` the cell number change was -33.7% and the AC50 [2] was 1.3 µM [falling, full curve, poor fit].

In the case of `CCOC(=O)c1c(-c2ccc(F)cc2)csc1NC(=O)C1CC=CCC1C(=O)O` (centres undefined), the cell number change is reported as -17.6%, the AC50 [2] is reported as 2.59 µM [falling, single point] and the AC50 [1] is reported as 6.51 µM [falling, single point].

With `COc1ccc(C(CNC(=O)COc2c(C)cc(C)cc2C)N2CCOCC2)cc1` (centres undefined) the cell number change was 1.77% and the AC50 [1] was 29.1 µM [rising, single point].

In the case of `Cc1ccc(NC(=O)C(=O)NCCOc2ccc(Cl)cc2)c(C)c1`, the cell number change is reported as 25.1% and the AC50 [1] is reported as 0.366 µM [rising, full curve].

With `Cc1[nH]n(C(N)=S)c(=O)c1N=Nc1ccc(Br)cc1` the cell number change was -26.5% and the AC50 [1] was 29.1 µM [falling, single point].

With `Cn1c(CC(=O)Nc2ccc(Cl)c(Cl)c2)nnc1SCC(=O)Nc1nccs1` the AC50 [2] was 1.03 µM [rising, full curve] and the AC50 [1] was 0.731 µM [rising, full curve].

In the case of `CC(C)n1c(O)c(/C=C2\C=Nc3ccccc32)sc1=Nc1ccccc1`, the cell number change is reported as 29.7% and the AC50 [1] is reported as 16.4 µM [rising, single point].

In the case of `O=C(COC(=O)CSc1ccc([N+](=O)[O-])cc1)NCC1CCCO1` (centres undefined), the cell number change is reported as 3.97% and the AC50 [2] is reported as 0.651 µM [falling, single point].

For `CC(C(=O)NCCN1C(=O)S/C(=C\c2cccnc2)C1=O)N1C(=O)c2ccccc2C1=O` (centres undefined), the cell number change was 2.27% and the AC50 [1] was 0.13 µM [rising, full curve, poor fit].

With `O=c1[nH]c2cc3c(cc2cc1CN(CC1CCCO1)S(=O)(=O)c1ccccc1)OCCO3` (centres undefined) the cell number change was 7.67% and the AC50 [1] was 7.31 µM [rising, partial curve].

With `N/C(=N\OC(=O)c1ccc(Cl)cc1[N+](=O)[O-])c1cccnc1` the cell number change was -57.7%, the AC50 [2] was 29.1 µM [falling, single point] and the AC50 [1] was 29.1 µM [falling, single point].

In the case of `CNC(=O)CNC(=O)Nc1ccc(C)cc1`, the cell number change is reported as 8.68% and the AC50 [1] is reported as 0.651 µM [falling, single point].

For `COc1ccc(CCNC(=O)CCCCCn2c(SCC(N)=O)nc3cc4c(cc3c2=O)OCO4)cc1OC`, the AC50 [2] was 0.116 µM [rising, single point] and the AC50 [1] was 0.092 µM [rising, partial curve, poor fit].

With `CCNC(=O)CN1C(=O)NC(Cc2ccccc2)(Cc2ccccc2)C1=O` the cell number change was 15.9% and the AC50 [1] was 29.1 µM [rising, single point].

In the case of `N=c1c(C(=O)NCc2ccc3c(c2)OCO3)cc2c(=O)n3ccccc3nc2n1Cc1cccnc1`, the cell number change is reported as -27.2%.

In the case of `COc1ccc(CC(=O)Nc2ccc(C(=O)O)cc2NC(=O)Cc2ccc(OC)cc2)cc1`, the cell number change is reported as -3.13% and the AC50 [1] is reported as 20.6 µM [falling, single point].

For `O=C(Nc1ccc(-c2nc3ccccc3o2)cc1)c1ccc(N2CCOCC2)c([N+](=O)[O-])c1`, the cell number change was 145%, the AC50 [2] was 29.1 µM [rising, single point] and the AC50 [1] was 29.1 µM [rising, single point].

Molecule `CC(=O)NC12CC3CC(C1)CC(C(=O)N(C)CC(=O)Nc1ccc(F)c(F)c1F)(C3)C2` has a cell number change of -6.88%.

For `CCC(C)(C)NC(=O)C(c1ccco1)N(C(=O)c1csnn1)c1cccc(F)c1` (centres undefined), the cell number change was -0.698% and the AC50 [1] was 29.1 µM [falling, single point].

In the case of `CN(C)CCCN1C(=O)c2cccc3c([N+](=O)[O-])ccc(c23)C1=O`, the cell number change is reported as -63.9%, the AC50 [2] is reported as 29.1 µM [falling, single point] and the AC50 [1] is reported as 29.1 µM [falling, single point].

With `CC(C)Oc1cc(NC(=O)CSCC(=O)Nc2cccc(C(F)(F)F)c2)c(Cl)cc1Cl` the AC50 [1] was 25.9 µM [falling, single point].

With `Cc1ccnc2nc(C(=O)OCC(=O)NCc3cccc(Cl)c3)nn12` the cell number change was 4.75% and the AC50 [1] was 1.84 µM [falling, full curve, poor fit].

In the case of `CCc1cccc(C)c1NC(=O)N(C)C1CCCCC1`, the cell number change is reported as -32.9%, the AC50 [2] is reported as 0.231 µM [falling, full curve] and the AC50 [1] is reported as 0.326 µM [falling, full curve, poor fit].

With `COC(=O)c1cc2ccsc2n1CC(=O)N1CCCc2ccccc21` the cell number change was -18.1% and the AC50 [1] was 0.146 µM [falling, single point].

In the case of `Cc1cc(C)n2nc(C(=O)Nc3nnc(C4CC4)s3)nc2n1`, the cell number change is reported as -10.1% and the AC50 [1] is reported as 5.17 µM [falling, full curve, poor fit].

Molecule `O=C(O)C1C(c2ccccc2)C(C(=O)OCc2ccco2)C1c1ccccc1` (centres undefined) has a cell number change of -10.2%.

In the case of `Cc1ccc(N(Cc2ccccc2)C(=O)c2cccc(F)c2)cc1`, the cell number change is reported as 16.8% and the AC50 [1] is reported as 0.461 µM [falling, single point].

In the case of `CCCn1c(=O)c2ccccc2n2c(SCCOc3ccccc3)nnc12`, the cell number change is reported as -27.9%.

For `CCN(CCO)c1ncnc2c1sc1nc(CC(C)C)c3c(c12)CC(C)(C)OC3`, the cell number change was 23.1% and the AC50 [1] was 13 µM [rising, partial curve].

For `CCOc1ccc(NC(=O)N(C2CCCCC2)C(C)c2cccnc2)cc1` (centres undefined), the cell number change was 0.184% and the AC50 [1] was 1.3 µM [rising, full curve, poor fit].

In the case of `Cc1cccc(NC(=O)c2ccc3c(c2)C(=O)N(c2ccccc2C)C3=O)n1`, the AC50 [2] is reported as 3.66 µM [rising, partial curve, poor fit].

With `COc1ccc(-n2c(-c3cnccn3)n[nH]c2=S)cc1` the cell number change was 4.74% and the AC50 [1] was 29.1 µM [falling, single point].

For `COc1ccc(-c2c(C)oc3c(CN4CCN(CCO)CC4)c(O)ccc3c2=O)cc1OC`, the AC50 [1] was 6.51 µM [rising, single point].

In the case of `Cc1ccc(F)cc1NS(=O)(=O)c1ccc(Cl)s1`, the cell number change is reported as -9.77% and the AC50 [1] is reported as 0.082 µM [rising, full curve, poor fit].

In the case of `COC(=O)c1sc(N2CCN(Cc3ccccc3)CC2)nc1N`, the cell number change is reported as 18% and the AC50 [1] is reported as 3.66 µM [rising, partial curve].

With `CC(C)C(=O)N1CCC(n2nccc2NC(=O)CCc2ccccc2)CC1` the cell number change was 23.2% and the AC50 [1] was 29.1 µM [rising, single point].

For `CCOc1ccc(S(=O)(=O)N2CCc3cc(OC)c(OC)cc3C2)cc1`, the cell number change was -13.4% and the AC50 [1] was 18.4 µM [rising, single point].

For `CCOc1ccc(C2C(C#N)=C(N)SC(N)=C2C#N)cc1OCC`, the cell number change was -78.8%, the AC50 [2] was 18.4 µM [falling, partial curve] and the AC50 [1] was 29.1 µM [falling, single point].

In the case of `Cc1c(C2Nc3ccccc3NC3=C2C(=O)CC(C)(C)C3)cnn1C` (centres undefined), the cell number change is reported as -21.5% and the AC50 [1] is reported as 0.82 µM [falling, partial curve].

In the case of `Cc1cccc(C(C)C)c1NC(=O)COC(=O)CNS(=O)(=O)c1ccccc1`, the AC50 [1] is reported as 0.58 µM [rising, full curve, poor fit].

In the case of `COCCNC(=O)c1ccccc1NC(=O)c1ccccc1N(C)S(=O)(=O)c1ccc(C)cc1`, the cell number change is reported as -39.8% and the AC50 [1] is reported as 0.00517 µM [falling, full curve, poor fit].

In the case of `CC1(C)C2CCC1(C)C(OC(=O)CNc1ccccc1)C2` (centres undefined), the cell number change is reported as -0.117% and the AC50 [1] is reported as 0.651 µM [falling, partial curve, poor fit].

For `O=C1CCC(=O)N1OCCCOc1ccccc1`, the cell number change was 19.1% and the AC50 [1] was 0.00517 µM [falling, full curve].

In the case of `O=C(Nc1ccccc1C(=O)O)c1cccc(NS(=O)(=O)c2ccc(Br)cc2)c1`, the cell number change is reported as -13.2% and the AC50 [1] is reported as 14.6 µM [rising, partial curve].

With `Cc1ccccc1CN1CCN(S(=O)(=O)c2cccc3nsnc23)CC1` the cell number change was -0.293% and the AC50 [1] was 32.6 µM [falling, single point].

`O=C(O)c1cc(N/N=C/c2ccc(N3CCOCC3)cc2)ccc1Cl` gave a cell number change of 15.1%.

For `O=C(Cc1ccccc1)N/N=C/c1ccc2cccc(O)c2n1`, the cell number change was -45.8%, the AC50 [2] was 16.4 µM [falling, single point] and the AC50 [1] was 25.9 µM [falling, partial curve, poor fit].

With `O=C(O)c1cccc(Nc2c3ccccc3nc3ccccc23)c1` the cell number change was -31.5% and the AC50 [2] was 14.6 µM [falling, single point].

For `COC(=O)c1sc(-c2cccs2)cc1N`, the cell number change was 40.8% and the AC50 [2] was 18.4 µM [rising, single point].

For `Cn1nc(-c2ccc(Cl)cc2)c2cc(C(=O)N3CCN(C(=O)c4ccco4)CC3)sc21`, the cell number change was -85.1%, the AC50 [2] was 29.1 µM [falling, single point] and the AC50 [1] was 29.1 µM [falling, single point].

In the case of `CC1CC(C)CN(c2cc(N(C)CCO)c([N+](=O)[O-])c3nonc23)C1` (centres undefined), the AC50 [2] is reported as 6.51 µM [rising, single point].

`CCc1noc(C)c1C(=O)NCCc1ccc(OC)c(OC)c1` showed a cell number change of -13.8%.

In the case of `Cc1n[nH]c(=O)c2c(NC(=O)CSc3nncn3C(C)C)oc(C)c12`, the cell number change is reported as 14.1% and the AC50 [1] is reported as 6.51 µM [falling, single point].

In the case of `N#Cc1c(-c2ccco2)nc(SCC(=O)Nc2cccc(Cl)c2)[nH]c1=O`, the cell number change is reported as -14.5%, the AC50 [2] is reported as 6.51 µM [falling, single point] and the AC50 [1] is reported as 6.51 µM [falling, single point].

With `Cc1ccc2nc(N3CCN(C(=O)c4ccc(F)cc4)CC3)c(C#N)cc2c1` the cell number change was 1.81% and the AC50 [1] was 29.1 µM [falling, single point].
